In patent US20240156959A1, “COMBINATION THERAPY FOR THE TREATMENT OF CANCER COMPRISING AN ANTl-EGFR ANTIBODY AND AN AXL-INHIBITOR” (Yeda Research and Development Co. Ltd., priority 2021, published 2024) one finds binding data, which are given here for two substances.

Sequences of proteins named here, by UniProt entry; tags and fusion partners are left off. Residues count along the entry.
UniProt Q9NS91: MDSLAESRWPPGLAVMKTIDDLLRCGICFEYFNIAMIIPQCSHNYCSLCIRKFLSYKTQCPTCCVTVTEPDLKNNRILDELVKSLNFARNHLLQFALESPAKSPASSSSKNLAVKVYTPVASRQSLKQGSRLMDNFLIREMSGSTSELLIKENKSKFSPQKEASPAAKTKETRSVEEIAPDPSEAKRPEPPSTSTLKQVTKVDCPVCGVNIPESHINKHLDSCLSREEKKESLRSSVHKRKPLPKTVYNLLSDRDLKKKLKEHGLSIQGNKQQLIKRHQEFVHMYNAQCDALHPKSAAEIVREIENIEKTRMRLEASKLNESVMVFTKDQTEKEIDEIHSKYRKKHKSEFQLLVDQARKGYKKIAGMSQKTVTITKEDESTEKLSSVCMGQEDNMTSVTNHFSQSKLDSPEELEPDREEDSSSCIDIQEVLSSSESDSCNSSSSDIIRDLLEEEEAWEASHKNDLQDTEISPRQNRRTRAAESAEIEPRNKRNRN
UniProt P30530, residues 26-894: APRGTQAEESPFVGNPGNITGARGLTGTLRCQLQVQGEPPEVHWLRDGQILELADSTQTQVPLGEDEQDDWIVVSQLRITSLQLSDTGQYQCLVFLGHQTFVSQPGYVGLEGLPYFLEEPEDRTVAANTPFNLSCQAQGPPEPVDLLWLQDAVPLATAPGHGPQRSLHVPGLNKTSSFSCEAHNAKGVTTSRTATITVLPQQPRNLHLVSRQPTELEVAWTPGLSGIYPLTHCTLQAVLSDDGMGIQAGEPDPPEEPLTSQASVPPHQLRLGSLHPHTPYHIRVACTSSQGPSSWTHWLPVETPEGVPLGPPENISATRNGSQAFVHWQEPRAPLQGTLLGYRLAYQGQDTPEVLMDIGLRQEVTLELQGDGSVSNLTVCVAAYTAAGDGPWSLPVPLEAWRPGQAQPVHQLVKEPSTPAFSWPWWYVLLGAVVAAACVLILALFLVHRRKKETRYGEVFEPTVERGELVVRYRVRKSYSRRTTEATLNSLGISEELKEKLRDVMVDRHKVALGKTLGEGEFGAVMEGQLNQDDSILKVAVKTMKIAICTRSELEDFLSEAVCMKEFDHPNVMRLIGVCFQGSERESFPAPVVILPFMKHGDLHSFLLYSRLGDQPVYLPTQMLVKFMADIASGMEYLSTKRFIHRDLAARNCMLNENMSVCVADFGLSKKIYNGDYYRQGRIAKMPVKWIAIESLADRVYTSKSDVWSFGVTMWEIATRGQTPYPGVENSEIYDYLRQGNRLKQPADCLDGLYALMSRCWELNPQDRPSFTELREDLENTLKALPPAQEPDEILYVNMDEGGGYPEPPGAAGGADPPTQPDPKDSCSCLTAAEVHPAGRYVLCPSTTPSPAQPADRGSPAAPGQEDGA

Results are given in words; binding and its absence hold for the method and conditions named. In cells and extracts the contact can be indirect. Some results given as binding are weak or reduced against the parent protein; the word gives no strength.

Assay [1] addresses RAD18 (UniProt Q9NS91). Put plainly: co-immunoprecipitation from PC9 and AXL-overexpressing PC9 cell extracts; proximity ligation assay in PC9 cells.
Assay [2] deals with RAD18 (UniProt Q9NS91). Put plainly: conclusion drawn from co-immunoprecipitation and proximity ligation assay.
For another assay, the target named is AXL (UniProt P30530). Nature of the assay: co-immunoprecipitation with anti-RAD18 or anti-AXL antibody from PC9 and AXL-overexpressing cell extracts, then immunoblot (FIG. 8F).

With “AXL (from UniProt P30530 26-894) (receptor)”, the binding entry with RAD18 [1] and with RAD18 [2] was “binds” throughout. Consider “RAD18 (from UniProt Q9NS91 1-495) (enzyme)”, for which the binding result with AXL was “binds”.
